# Assay results from PubChem BioAssay AID504834 (National Center for Advancing Translational Sciences (NCATS), 2011).
# Where “and” joins values, the source holds several entries; their conditions need not be identical. Equal values may be shown once. Hit rate of the full screen: of about 320,000 compounds, about 22,000 (6.9%) were called active. Inconclusive means that the source gave no clear call. Such entries were picked first, then a sample of the others. The call rests on the fitted dose curve; in most records, active means well fitted inhibition curve with a large enough effect; inconclusive means small, poorly fitted or top-dose-only effect, or another doubt; inactive means no such curve, though single readings can be large or run the other way. Potencies of inconclusive entries are doubtful fits and often do not repeat.
# Experiment: Primary qHTS for delayed death inhibitors of the malarial parasite plastid, 96 hour incubation
# Conditions: P. falciparum luciferase reporter growth; series mostly up to 28.7 µM
# Outline: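 Infected RBCs, 2% Hct / 0.05% parasitemia final; luciferase-reporter P. falciparum; cpd 96 h, 37 C, 5% CO2; luciferase detection reagent; luminescence.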
# Potency means the concentration at half of the fitted maximal effect.
row,Compound,Potency
1,Cc1ccc2c(c1)cc(CN(Cc1cccs1)C(=O)c1ccco1)c1nnnn12,"inconclusive: 0.329 µM [inhibitor, partial curve, poor fit]"
2,Cc1ccc(N2C(=O)N(CC(=O)C(C)(C)C)c3ccccc3S2(=O)=O)cc1,"inconclusive: 18.5 µM [inhibitor, single point]"
3,COCCNC(=O)/C(C#N)=C/c1ccc2c(c1)OCO2,"inconclusive: 9.28 µM [inhibitor, partial curve, poor fit]"
4,Cc1ccc(N(Cc2ccccc2)C(=O)c2ccc(C)c(S(=O)(=O)N3CCOCC3)c2)cc1,active: 2.08 µM
5,O=C1Nc2cc(Br)ccc2C1(O)c1ccccc1O (configuration not stated),"inconclusive: 9.28 µM [inhibitor, partial curve]"
6,Cc1c(NC(=O)c2ccccc2F)c(=O)n(-c2ccccc2)n1C,"inconclusive: 13.1 µM [inhibitor, single point]"
7,N#C/C(C(=O)N1CCOCC1)=C1/SC(Cc2ccccc2Cl)C(=O)N1c1ccccc1 (configuration not stated),"inconclusive: 4.15 µM [inhibitor, partial curve, poor fit]"
8,Cc1ccc(NC(=S)NC(=O)C2CC2)cc1Cl,active: 9.28 µM
9,CCc1sc(C(=O)NCc2ccccc2)cc1C,inactive
10,CCC(C)c1ccccc1OCC(=O)NN1C(=O)c2ccccc2C1=O (configuration not stated),"inconclusive: 10.4 µM [inhibitor, single point]"
11,NC(=O)CSc1nc2c(c(=O)n1-c1ccccc1)C1(CCCCC1)Cc1ccccc1-2,active: 11.7 µM
12,CCOC(=O)N/N=C/c1ccc(N(CC)CC)cc1O,active: 4.15 µM
13,CCOc1ccc(C(=O)NC(C(=O)NCCc2ccc(OC(F)F)cc2)C(C)C)cc1 (configuration not stated),"inconclusive: 0.738 µM [inhibitor, partial curve, poor fit]"
14,Cc1ccc(C)c(NC(=O)c2cc([N+](=O)[O-])cc([N+](=O)[O-])c2)c1,"inconclusive: 2.94 µM [inhibitor, partial curve, poor fit]"
15,Cc1sc(NC(=O)Cn2c(=O)oc3ccccc32)nc1-c1ccc(Cl)cc1,"inconclusive: 13.1 µM [inhibitor, single point]"
16,CCOc1ccc2oc(C(=O)NCC(c3ccco3)N(C)C)c(C)c2c1 (configuration not stated),"inconclusive: 8.28 µM [inhibitor, partial curve, poor fit]"
17,O=C(COC(=O)c1cn(-c2ccccc2)nc1-c1ccccc1)Nc1ncc(Cl)cc1Cl,inactive
18,O=C(C#Cc1ccccc1)NCc1ccccc1F,inactive
19,CCOc1cc(S(=O)(=O)NCc2ccccc2)ccc1Br,inactive
20,NC(=O)c1cc2cc(Cl)ccc2o/c1=N/NC(=O)c1cccs1,inactive
21,CC1(C(=O)N/N=C/c2cc3c(cc2Br)OCO3)CC1(Br)Br (configuration not stated),"inconclusive: 9.28 µM [inhibitor, single point]"
22,COCCCNC(=O)c1cc(-c2cccnc2)nc2ccccc12,"inconclusive: 9.28 µM [inhibitor, partial curve, poor fit]"
23,COc1ccc(Cn2nnnc2C(c2ccncc2)N2CCOCC2)cc1 (configuration not stated),"inconclusive: 18.5 µM [inhibitor, single point]"
24,COc1ccc(C)cc1N(CC(=O)N1CCCC1)S(=O)(=O)c1ccccc1,"inconclusive: 10.4 µM [inhibitor, partial curve, poor fit]"

row,Compound,Potency
1,CCOC(=O)N1CCC(NS(=O)(=O)c2ccc(C)cc2)CC1,"inconclusive: 1.85 µM [inhibitor, partial curve, poor fit]"
2,CCOC(=O)c1c(C)noc1CP(=O)(c1ccccc1)c1ccccc1,"inconclusive: 10.4 µM [inhibitor, single point]"
3,O=C(CSc1nnc(-c2c[nH]c3ccccc23)o1)N1CCCCC1,"inconclusive: 0.233 µM [inhibitor, full curve, poor fit]"
4,Cn1cnc(C(F)(F)F)c1-c1ccc([N+](=O)[O-])cc1,"inconclusive: 3.29 µM [inhibitor, partial curve]"
5,CC(C)c1ccc(NC(=O)c2ccc(NS(C)(=O)=O)cc2)cc1,"inconclusive: 0.0026 µM [inhibitor, partial curve, poor fit]"
6,C=C(C)c1cccc(C(C)(C)NC(=O)Nc2ccccc2OCC)c1,"inconclusive: 18.5 µM [inhibitor, single point]"
7,CC1CCc2nn(CC(=O)Nc3c(F)cc(F)cc3Br)cc2C1 (configuration not stated),"inconclusive: 18.5 µM [inhibitor, single point]"
8,OC(COCc1ccccc1)CN1CCCC1 (configuration not stated),inactive
9,CCCn1c(=O)c(F)cn(Cc2ccc(OC)c([N+](=O)[O-])c2)c1=O,inactive
10,CN(C)S(=O)(=O)N1CCC(Oc2ccc(C(=O)NC3CCOC(C)(C)C3)cc2)CC1 (configuration not stated),"inconclusive: 4.15 µM [inhibitor, partial curve, poor fit]"
11,CC1CCN(C(=O)c2ccccc2NS(=O)(=O)c2ccccc2)CC1,"inconclusive: 1.17 µM [inhibitor, full curve, poor fit]"
12,Clc1ccccc1C1=CC(c2ccco2)n2ncnc2N1 (configuration not stated),inactive
13,O=C(CC1S/C(=N/N=C/c2c[nH]c3ccc(OCc4ccccc4)cc23)NC1=O)Nc1ccccc1 (configuration not stated),active: 11.7 µM
14,COc1ccc2oc(=O)cc(CN3CCOCC3)c2c1,"inconclusive: 0.586 µM [inhibitor, full curve, poor fit]"
15,Nc1ccccc1Nc1cc(-c2cccc(Cl)c2)nn1-c1ccccc1,"inconclusive: 18.5 µM [inhibitor, single point]"
16,COc1ccc(-c2csc(NC(=O)c3ccccc3F)c2C(=O)O)cc1,"inconclusive: 0.415 µM [inhibitor, full curve, poor fit]"
17,CN(C(=O)COc1ccccc1)c1nnc(-c2ccncc2)s1,active: 4.15 µM
18,O=C(c1ccccc1)N1CCCCC(Cl)C1=O (configuration not stated),inactive
19,Cc1cc(=O)n2nc(N3CCC(C(=O)Nc4c(F)c(F)c(F)c(F)c4F)CC3)sc2n1,active: 4.15 µM
20,c1ccc(-n2nnc3cnccc32)cc1,"inconclusive: 13.1 µM [inhibitor, single point]"
21,COc1ccc(CC(=O)OCC(=O)N(C)C2CCS(=O)(=O)C2)cc1OC (configuration not stated),inactive
22,Cc1cc([N+](=O)[O-])cc(C)c1OCC(=O)N/N=C/c1ccc(OC(=O)c2ccccc2)cc1,active: 2.08 µM
23,O=C(NCCNC(=O)c1ccccn1)c1ccc(Cl)cc1,"inconclusive: 10.4 µM [inhibitor, single point]"
24,COc1cc(NC(=O)C2CCCC2)c(OC)cc1Cl,active: 9.28 µM

# Entries above that contain a thiophene ring, fused or not, in the order listed:
row,Compound,Potency
1,Cc1ccc2c(c1)cc(CN(Cc1cccs1)C(=O)c1ccco1)c1nnnn12,"inconclusive: 0.329 µM [inhibitor, partial curve, poor fit]"
9,CCc1sc(C(=O)NCc2ccccc2)cc1C,inactive
20,NC(=O)c1cc2cc(Cl)ccc2o/c1=N/NC(=O)c1cccs1,inactive
16,COc1ccc(-c2csc(NC(=O)c3ccccc3F)c2C(=O)O)cc1,"inconclusive: 0.415 µM [inhibitor, full curve, poor fit]"

# Next entries:

row,Compound,Potency
1,COc1ccc(Nc2nc(C(F)(F)F)nc(C)c2C#N)cc1,inactive
2,Cc1ccc(NC(=O)Nc2cccnc2)cc1NC(=O)Nc1cccnc1,"inconclusive: 1.17 µM [inhibitor, partial curve, poor fit]"
3,Cc1ccc(NC(=O)CCSCCc2ccccn2)cc1,"inconclusive: 2.62 µM [inhibitor, partial curve, poor fit]"
4,Cc1ccc(CC2CC(=O)N(Cc3ccco3)C2=O)cc1 (configuration not stated),inactive
5,CC(Sc1ccc2c(c1)OCCO2)C(=O)Nc1ncc(Cl)cc1Cl (configuration not stated),inactive
6,Cc1ccc(O)c(-c2cc(C(=O)Nc3ccc(S(=O)(=O)Nc4nc(C)cc(C)n4)cc3)[nH]n2)c1,active: 13.1 µM
7,CC(C)C(=O)Nc1c2c(nn1-c1ccccc1)CSC2,"inconclusive: 14.7 µM [inhibitor, partial curve, poor fit]"
8,O=C1CSC(c2cccnc2)N1Cc1cccnc1 (configuration not stated),inactive
9,O=C(Cc1ccccc1[N+](=O)[O-])Nc1ccc2c(c1)OCO2,"inconclusive: 10.4 µM [inhibitor, single point]"
10,CC1=C(C)C(=O)C(CCCCC#CCCCC#CCO)=C(C)C1=O,active: 12 µM and active: 9.28 µM
11,Cc1cc(C)c(/C=C(\C#N)C(N)=S)c(C)c1,"inconclusive: 14.7 µM [inhibitor, single point]"
12,Cc1cccc(-c2nnc(-c3ccccc3)o2)c1,inactive
13,Cc1ccc(NCC(=O)N/N=C/c2ccc(-c3cccc(C(F)(F)F)c3)o2)cc1,inactive
14,Cc1cc(OCC(=O)N(Cc2cccs2)C2CCS(=O)(=O)C2)ccc1Cl (configuration not stated),"inconclusive: 0.165 µM [inhibitor, full curve, poor fit]"
15,CCC1CN(C(=O)N2CCC(C(=O)NCCc3ccc(OC)cc3OC)CC2)c2ccccc2O1 (configuration not stated),"inconclusive: 14.7 µM [inhibitor, partial curve, poor fit]"
16,COc1ccc(CNC(=O)CCCCCNc2nc(=S)[nH]c3ccccc23)cc1,"inconclusive: 18.5 µM [inhibitor, single point]"
17,Cc1cc(S(=O)(=O)NC2CC(C)(C)NC(C)(C)C2)c(Cl)cc1Cl,inactive
18,Cc1c(OCC(=O)NC2CC(C)(C)NC(C)(C)C2)ccc2c1oc(=O)c1ccccc12,active: 3.29 µM
19,Cc1ccc(-c2c[n+](Cc3cccc(Cl)c3)c3n2CCC3)cc1,"inconclusive: 0.586 µM [inhibitor, full curve]"
20,Cc1csc(NC(=O)c2oc3ccccc3c2C)n1,inactive
21,CCOCC(=O)Nc1nnc(COC)s1,"inconclusive: 7.38 µM [inhibitor, partial curve, poor fit]"
22,COc1ccc2oc(=O)c(C(=O)O)cc2c1,"inconclusive: 4.65 µM [inhibitor, partial curve, poor fit]"
23,CCCn1c(CCC(=O)O)ccc1-c1ccc(F)cc1,active: 9.28 µM
24,CCC(=O)N(CCc1ccccc1)Cc1cc2cc3c(cc2[nH]c1=O)OCO3,"inconclusive: 14.7 µM [inhibitor, partial curve, poor fit]"
